Screen size: about 320,000 compounds; about 22,000 (6.9%) were called active. The shares of active, inactive and inconclusive entries below differ from those in the screen. The call rests on the fitted dose curve; in most records, active means well fitted inhibition curve with a large enough effect; inconclusive means small, poorly fitted or top-dose-only effect, or another doubt; inactive means no such curve, though single readings can be large or run the other way. Potencies of inconclusive entries are doubtful fits and often do not repeat.
assay: Primary qHTS for delayed death inhibitors of the malarial parasite plastid, 96 hour incubation; conditions: P. falciparum luciferase reporter growth; series mostly up to 28.7 µM; activity change, negative = inhibition: at the top concentration
Procedure, shortened: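 Two-generation exposure (96 h) targets delayed-death phenotype. Reporter parasites carrying integrated firefly luciferase, in red cells at 2% hematocrit and 0.05% parasitemia final, kept at 37 C, 5% CO2; luminescence loss indicates inhibition.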
On the % scale 0 is the no-effect control and ±100 the full control effect; potency means the concentration at half of the fitted maximal effect.

With `COc1ccc2c(c1OC)C(=O)OC2C1c2cc3c(cc2CCN1C)OCO3` (stereo unspecified) as the compound, how does the Potency read?
The Potency was active: 11.7 µM.

For `COc1ccc(C(C)n2c(C)c3c(C)nnc(C)c3c2C)cc1` (stereo unspecified), which Potency is on record?
Its Potency is inconclusive: 0.0657 µM [inhibitor, full curve, poor fit].

Which “activity change, negative = inhibition” value does the source give for `O=C(NCCOc1ccc(F)cc1)c1ccccc1SCc1ccccc1` here?
Its value is inactive: -28.1%.

Which Potency does the source give for `COCc1nnc(NC(=O)c2cc(Cl)ccc2OC)s1` here?
Its Potency is inconclusive: 18.5 µM [inhibitor, single point].

Which “activity change, negative = inhibition” value does the source give for `O=C(Nc1ccccc1Sc1ccccc1)c1ccccc1` here?
Its value is inactive: -10.3%.

With `COc1ccc(S(=O)(=O)N2CC3CC(C2)c2cccc(=O)n2C3)cc1` (stereo unspecified) as the compound, how does the “activity change, negative = inhibition” value read?
Its value is inactive: 85.9%.

For `COc1ccccc1NC(=O)c1sc2ncn(Cc3cccc(C)c3)c(=O)c2c1C`, which “activity change, negative = inhibition” value is on record?
Its value is inactive: 20.2%.

Which Potency does the source give for `[O-]/C(=C(\C(=S)NCc1ccccc1)[n+]1ccccc1)c1ccc(Cl)cc1` here?
Its Potency is inconclusive: 10.4 µM [inhibitor, single point].

With `CCC(Cc1ccccc1)NC(=O)C1CCC(CNc2c(N3CCCC3)c(=O)c2=O)CC1` (stereo unspecified) as the compound, how does the “activity change, negative = inhibition” value read?
Its value is inactive: -34.6%.

Which Potency does the source give for `c1ccc(COc2cccc(CNCc3cccs3)c2)cc1` here?
The Potency was inconclusive: 2.94 µM [inhibitor, partial curve, poor fit].

Which “activity change, negative = inhibition” value does the source give for `Cc1ccc(C(=O)CCC(=O)OCC(=O)N2c3ccccc3NC(=O)C2(C)C)cc1` here?
Its value is inactive: 50.3%.

For `CC1(C(=O)NCc2ccc(Cl)c(Cl)c2)Oc2cccnc2NC1=O` (stereo unspecified), which Potency is on record?
Its Potency is active: 5.22 µM.

Which Potency does the source give for `O=C(O)c1ccc(CNC(=O)c2ccc3c(c2)C(=O)N(Cc2cccnc2)C3=O)cc1` here?
Its Potency is inconclusive: 18.5 µM [inhibitor, single point].

Which Potency does the source give for `O=C(Nc1ccccc1N1CCOCC1)c1ccc2c(c1)C(=O)N(Cc1ccncc1)C2=O` here?
The Potency was inconclusive: 18.5 µM [inhibitor, single point].

For `COC(=O)CCC(=O)OC1(C)C(=O)C=C2C=C(C3CC3)N(Cc3ccc(OC)cc3)C=C2C1=O` (stereo unspecified), which Potency is on record?
Its Potency is inconclusive: 13.1 µM [inhibitor, partial curve, poor fit].

With `CCn1c(C(=O)NCc2cccnc2)cc2sc(Cl)cc21` as the compound, how does the Potency read?
The Potency was inconclusive: 18.5 µM [inhibitor, single point].

For `COc1ccc(S(=O)(=O)N2CCOCC2)cc1C(=O)Nc1cc(C)on1`, which Potency is on record?
The Potency was inconclusive: 1.17 µM [inhibitor, full curve, poor fit].

For `C#CCNC(=O)C1=C[C@@H](c2ccc(C#C)cc2)[C@H](CCCO)[C@@H](OCC)O1`, which “activity change, negative = inhibition” value is on record?
The value was inactive: 5.27%.

Which Potency does the source give for `COc1ccc(NS(=O)(=O)c2cccc(C(=O)N3CCN(Cc4ccc5c(c4)OCO5)CC3)c2)cc1` here?
The Potency was inconclusive: 1.65 µM [inhibitor, partial curve].

With `NNC(=O)CN1C(c2ccccc2Br)=Nc2ccc(Br)cc2C1c1ccccc1` (stereo unspecified) as the compound, how does the Potency read?
Its Potency is inconclusive: 10.4 µM [inhibitor, single point].

Which Potency does the source give for `CCOc1ccc(N(C)C(=O)CCc2nnc3ccc(N4CCOCC4)nn23)cc1` here?
Its Potency is inconclusive: 18.5 µM [inhibitor, single point].

Which “activity change, negative = inhibition” value does the source give for `Cc1c(Cl)cccc1NC(=S)NNS(=O)(=O)c1ccc([N+](=O)[O-])cc1` here?
The value was inactive: 8.91%.

Which Potency does the source give for `COc1ccc(-n2ncc3c2CC(C)(C)CC3NC(=O)c2ccoc2C)cc1` (stereo unspecified) here?
The Potency was inconclusive: 20.8 µM [inhibitor, partial curve, poor fit].

With `CN1CCCN(Cc2nc(-c3ccc(Cl)cc3)no2)CC1` as the compound, how does the Potency read?
The Potency was inconclusive: 18.5 µM [inhibitor, single point].

With `Oc1ccc(C23CC4CC(CC(C4)C2)C3)cc1O` as the compound, how does the Potency read?
The Potency was active: 7.38 µM.

Which “activity change, negative = inhibition” value does the source give for `O=C(NC1CCN(c2ncccn2)CC1)c1c(F)cccc1F` here?
Its value is inactive: 51.5%.

With `CC(C(=O)Nc1ccccc1-c1ccccc1)N1CCN(C(=O)c2ccccc2)CC1` (stereo unspecified) as the compound, how does the Potency read?
Its Potency is inconclusive: 0.465 µM [inhibitor, full curve, poor fit].

For `O=[N+]([O-])c1ccc(O)c(/C=N/Nc2ccc(Cl)nn2)c1`, which Potency is on record?
Its Potency is active: 0.37 µM.

With `Cc1ccsc1C1Nc2ccccc2C(=O)N1O` (stereo unspecified) as the compound, how does the Potency read?
Its Potency is inconclusive: 9.28 µM [inhibitor, single point].

With `COC(=O)CCNC(=O)CCc1ccc(S(=O)(=O)N2CCCCCC2)cc1` as the compound, how does the Potency read?
Its Potency is inconclusive: 18.5 µM [inhibitor, single point].

For `O=C(Cc1ccccc1[N+](=O)[O-])NNC(=O)c1cccs1`, which “activity change, negative = inhibition” value is on record?
Its value is inactive: 0%.

With `Cn1ccc(/C=N/N=C2/NC(=O)CS2)n1` as the compound, how does the Potency read?
Its Potency is inconclusive: 1.47 µM [inhibitor, full curve].

Which Potency does the source give for `NNC(=O)CN1C(c2ccc(Br)cc2)=Nc2ccc(Br)cc2C1c1ccccc1` (stereo unspecified) here?
Its Potency is inconclusive: 1.47 µM [inhibitor, full curve].

With `CCCNC(=O)c1ccccc1NC(=O)c1ccccc1N(C)S(=O)(=O)c1ccc(C)cc1` as the compound, how does the “activity change, negative = inhibition” value read?
The value was inactive: 11%.

For `CCN(CC)CCOC(=O)CCc1cccc2ccccc12`, which Potency is on record?
The Potency was inconclusive: 18.5 µM [inhibitor, single point].

With `O=C(CCc1nnc(Cc2ccc3c(c2)OCO3)o1)NCc1nc2ccccc2s1` as the compound, how does the Potency read?
The Potency was inconclusive: 11.7 µM [inhibitor, single point].

For `CC(/C=N\NC(=O)c1ccc2c(c1)OCO2)c1ccccc1` (stereo unspecified), which “activity change, negative = inhibition” value is on record?
The value was inactive: 4.51%.

Which Potency does the source give for `COc1ccc(Cn2cccc(NC(=O)Nc3cccc(OC)c3)c2=O)cc1` here?
Its Potency is inconclusive: 2.33 µM [inhibitor, full curve].

Which Potency does the source give for `COc1cc(C2C(C#N)=C(N)Oc3n[nH]c(-c4ccccn4)c32)cc(OC)c1OC` (stereo unspecified) here?
The Potency was inconclusive: 0.131 µM [inhibitor, full curve, poor fit].

With `CN1CCN(c2ccccc2/C=C2/C(=O)Nc3ccccc32)CC1` as the compound, how does the Potency read?
Its Potency is inconclusive: 20.8 µM [inhibitor, single point].

With `Cc1ccc(/C=C2\SC(=O)N(CCNC(=O)C3CSC4(C)CCC(=O)N34)C2=O)cc1` (stereo unspecified) as the compound, how does the Potency read?
Its Potency is inconclusive: 18.5 µM [inhibitor, single point].

Which Potency does the source give for `Cc1cc(C)n(CCc2nc(-c3ccc(C)o3)cs2)n1` here?
The Potency was inconclusive: 0.0329 µM [inhibitor, full curve, poor fit].

With `CC(C)c1ccc(NC(=O)N2CCc3ccccc3C2)cc1` as the compound, how does the “activity change, negative = inhibition” value read?
Its value is inactive: 31.4%.

Which “activity change, negative = inhibition” value does the source give for `Nc1nc2ncc(-c3ccsc3)c(N)n2n1` here?
The value was inactive: 0.675%.

For `COc1ccc(NC(=O)CSc2nnnn2C2CC3C=CC2C3)cc1` (stereo unspecified), which Potency is on record?
The Potency was inconclusive: 11.7 µM [inhibitor, partial curve, poor fit].

For `Fc1cc(Br)ccc1NC(=S)Nc1ccccc1`, which Potency is on record?
Its Potency is inconclusive: 9.28 µM [inhibitor, single point].

For `CCC(=O)N1C(Cc2ccccc2)COC1(C)C` (stereo unspecified), which Potency is on record?
Its Potency is inconclusive: 9.28 µM [inhibitor, single point].

Which Potency does the source give for `COc1ccccc1CCNC(=O)c1ccc(NC(=O)CC2SC(N3CCCCC3)=NC2=O)cc1` (stereo unspecified) here?
The Potency was active: 10.4 µM.

Which Potency does the source give for `Cc1ccc(N2C(=O)CCSC23C(=O)Nc2ccccc23)cc1` (stereo unspecified) here?
Its Potency is inconclusive: 3.29 µM [inhibitor, partial curve].

Which Potency does the source give for `C=CC(=O)NC(NC(=O)C=C)c1ccc(Br)cc1` here?
Its Potency is inconclusive: 2.94 µM [inhibitor, full curve, poor fit].

With `O=C(Oc1coc(CSc2ncccn2)cc1=O)c1cccs1` as the compound, how does the Potency read?
Its Potency is inconclusive: 18.5 µM [inhibitor, single point].

For `COc1ccc(OCCCC(=O)Nc2ccc3c(c2)OCCO3)cc1`, which “activity change, negative = inhibition” value is on record?
Its value is inactive: -1.52%.

Which “activity change, negative = inhibition” value does the source give for `Cc1ccccc1NC(=S)Nn1cnnc1` here?
The value was inactive: 3.4%.

For `c1ccc(Cn2nnnc2C(c2cccnc2)N2CCN(C3CCCCC3)CC2)cc1` (stereo unspecified), which Potency is on record?
Its Potency is active: 13.1 µM.

For `CNC(=O)Nc1ccc(Cn2cc(C(F)(F)F)ccc2=O)cc1`, which Potency is on record?
Its Potency is inconclusive: 18.5 µM [inhibitor, partial curve, poor fit].

For `Cc1ccc(S(=O)(=O)N2CCC(=O)N(C(COCc3cccc(Cl)c3)Cc3ccccc3)CC2)cc1` (stereo unspecified), which Potency is on record?
Its Potency is active: 10.4 µM.

With `O=c1c(C=NCc2cccnc2)c(C(F)(F)F)[nH]n1-c1nc2ccccc2s1` as the compound, how does the “activity change, negative = inhibition” value read?
The value was inactive: 16.2%.

For `CN(Cc1ccccc1)C(=O)C1CCN(S(=O)(=O)c2cccc3nsnc23)CC1`, which Potency is on record?
Its Potency is inconclusive: 9.28 µM [inhibitor, partial curve].

Which Potency does the source give for `O=C(c1ccc2c(c1)OCO2)N(CC1CCCO1)C1(C(=O)NC2CCCCC2)CCCCC1` (stereo unspecified) here?
The Potency was inconclusive: 18.5 µM [inhibitor, single point].

For `COc1ccc2oc(C(=O)OCC(=O)N(C)C3CCCCC3)c(C)c2c1`, which “activity change, negative = inhibition” value is on record?
The value was inactive: 2.06%.

Which Potency does the source give for `CC(C)CN(C(=O)COC(=O)c1ccccc1NCc1ccco1)c1c(N)n(Cc2ccccc2)c(=O)[nH]c1=O` here?
Its Potency is inconclusive: 18.5 µM [inhibitor, single point].

For `COc1ccc(-n2cc(-c3ccc(OC)c(OC)c3)[nH]c2=S)cc1`, which Potency is on record?
Its Potency is inconclusive: 9.28 µM [inhibitor, single point].

Which “activity change, negative = inhibition” value does the source give for `Cc1nn(Cc2ccccc2Cl)c(Cl)c1/C=C/C(=O)OCC(=O)NC(N)=O` here?
Its value is inactive: 33.8%.

With `O=C(CNC(=O)[C@@H]1Cc2ccccc2CN1)Nc1ccc2c(c1)OCO2` as the compound, how does the “activity change, negative = inhibition” value read?
Its value is inactive: -5.38%.

With `CCCN(CCC)C(=O)C1CCCN1S(=O)(=O)c1cccc2nsnc12` (stereo unspecified) as the compound, how does the Potency read?
Its Potency is inconclusive: 0.0329 µM [inhibitor, full curve].

With `O=C(CCCn1c(=O)oc2ccccc21)N1CCN(c2ccccn2)CC1` as the compound, how does the Potency read?
The Potency was inconclusive: 4.15 µM [inhibitor, partial curve].

For `CC1CCCN(S(=O)(=O)c2ccc(S(=O)(=O)N3CCCC3)cc2)C1` (stereo unspecified), which Potency is on record?
The Potency was inconclusive: 11.7 µM [inhibitor, single point].

For `Cc1[nH][nH]c(=O)c1C(c1c(C)[nH][nH]c1=O)c1cn(Cc2cccc3ccccc23)c2ccccc12`, which Potency is on record?
The Potency was inconclusive: 10.4 µM [inhibitor, single point].

Which Potency does the source give for `CC(C)(C)c1ccc(-c2cc(C(=O)NNC(=O)Nc3ccccc3)c3ccccc3n2)cc1` here?
Its Potency is active: 4.65 µM.

Which Potency does the source give for `CC(=O)Nc1c(C)nn(-c2ccc([N+](=O)[O-])cc2)c1C` here?
Its Potency is inconclusive: 10.4 µM [inhibitor, single point].

For `O=S(=O)(Nc1ccc(F)cc1Cl)c1ccc(-c2cnc(C3CC3)o2)cc1`, which Potency is on record?
The Potency was inconclusive: 16.5 µM [inhibitor, single point].
